From patent publication US10023565B2, “N,N′ substituted piperidinamine compounds, and preparation method and usage thereof” (Institute of Pharmacology and Toxicology Academy of …, priority 2013, dated 2018)
For at least one compound, name, drawing or mass did not settle the structure.

Test system: six human breast cancer cell strains
Assay: Antitumor activity evaluation, statements on the whole panel
Assay type: cell-based
Settings: compound alone
Excerpt: In antitumor activity evaluation, six human breast cancer cell strains are selected, including BT474, SK-BR3 which are human breast cancer cell strains sensitive to lapatinib, BT/Lap^R1.0, SK/Lap^R1.0 which are human breast cancer cell strains with secondary resistance to lapatinib, MDA-MB-361, MDA-MB-453 which are human breast cancer cell strains with natural resistance tolapatinib.
Antitumor bioactivity evaluation of the compounds of Examples according to the method described below
Cells plating: a 100 mm culture dish with overgrown adherent cells was digested with 1 ml 0.25% trypsin (GIBCO) at 37° C. for 5 min, and the reaction was terminated with 2 ml culture medium (containing 10% FBS, GIBCO). […]
Test after incubation at 37° C. for 72 hours: 50 μL of ATPlite kit substrate solution was added in each well, and vibrated for 3 min, followed by placing aside in darkness for 10 min, and then supernatant 100 μl/well was taken and placed on aluminescence test plate; the luminescence test plate that has been fully incubated was placed in a luminescence test instrument, to read luminescence value. […]

For CSc1nccc(N2CCC(N(C)Cc3c(Cl)cccc3Cl)CC2)n1 [Example 49, N-methyl-N-(2,6-dichlorobenzyl)-N-[1-(2-methylthiopyrimidin-4-yl)piperidin-4-yl]amine], the “growth inhibition to the six human breast cancer cell strains” value was “relatively significant growth inhibition”.
